# Where a name gives a salt, the structure may show the parent alone. Some of the results follow. Single values are uncertain here, since repeats match poorly.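 JEG3 cells stably express tetracycline-inducible wild-type human LRH-1, a highly sumoylated nuclear receptor. SUMO-sensitive transcripts APOC3 and MUC1, increased by SUMO-deficient LRH-1 or UBC9 knockdown, were quantified by RT-qPCR relative to TBP and DMSO controls. Primary hits had robust Z-scores above +2 or below -2, before toxicity and TBP filtering.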
# Tested on: JEG3 expressing hLRH-1
# Assay: MUC1 transcript change (ddCt vs TBP and DMSO), Z-score over library; higher = higher MUC1 expression
# Details: 10 µM; time (hr): 24
row,SMILES,MUC1 transcript change (Z-score)
1,O=C1OC2(c3ccc(O)cc3Oc3cc(O)ccc32)c2ccccc21 [fluorescein],-0.8
2,CCCCNc1ccc(C(=O)OCCN(C)C)cc1 [Tetracaine hydrochloride],0.0457
3,CC(=O)Oc1cccc(C(=O)O)c1OC(C)=O [dipyrocetyl],0.62
4,CN(C)CCC(c1ccccc1)c1ccccn1 (stereo not given) [pheniramine maleate],0.36
5,NCCc1cc[nH]n1 [betazole hydrochloride],0.582
6,CC(C)(Sc1cc(C(C)(C)C)c(O)c(C(C)(C)C)c1)Sc1cc(C(C)(C)C)c(O)c(C(C)(C)C)c1 [probucol],-0.713
7,CN(C)CCOC(=O)C(c1ccccc1)C1(O)CCCC1 (stereo not given) [cyclopentolate hydrochloride],-0.255
8,CC(=O)Nc1ccc(S(=O)(=O)Nc2ccc([N+](=O)[O-])cc2)cc1 [sulfanitran],0.874
9,Nc1ccc(C(=O)NCC(=O)O)cc1 [aminohippuric acid],0.192
10,Nc1nc(O)c2c(n1)NCC(CNc1ccc(C(=O)N[C@@H](CCC(=O)O)C(=O)O)cc1)N2C=O (stereo not given in full) [leucovorin calcium],0.504
11,CC(=O)N[C@@H]1[C@@H](C(O)[C@H](O)CO)O[C@](O)(C(=O)O)C[C@@H]1O (stereo not given in full) [n-acetylneuramic acid],0.671
12,CC[C@H](C)C(=O)O[C@H]1CCC=C2C=C[C@H](C)C(CCC3C[C@@H](O)CC(=O)O3)[C@H]21 (stereo not given in full) [compactin],-0.25
13,NCC(=O)CCC(=O)O [aminolevulinic acid hydrochloride],0.548
14,COc1ccc(CN(CCN(C)C)c2ncccn2)cc1 [thonzylamine hydrochloride],-0.278
15,Cn1c([N+](=O)[O-])cnc1COC(N)=O [ronidazole],0.0558
16,Cc1ccc(C)c(OCCCC(C)(C)C(=O)O)c1 [gemfibrozil],0.0605
17,C=CCNC(N)=S [allylthiourea],-0.389
18,C[C@]12CCC(=O)C=C1C=C[C@@H]1[C@@H]2CC[C@@]2(C)[C@H]1CC[C@@]21CCC(=O)O1 [canrenone],0.309
19,CC1(C)[C@@H](O)CC[C@]2(C)[C@H]3C(=O)C=C4[C@@H]5C[C@@](C)(C(=O)O)CC[C@]5(C)CC[C@@]4(C)[C@]3(C)CC[C@@H]12 [enoxolone],0.213
20,C/C=C/C(=O)N(CC)c1ccccc1C [crotamiton],-0.437

row,SMILES,MUC1 transcript change (Z-score)
1,NC(=O)N1c2ccccc2CC(=O)c2ccccc21 [oxcarbazepine],0.278
2,CC(C)(C)NCC(O)COc1cccc2c1CCCC2=O (stereo not given) [levobunolol hydrochloride],0.576
3,NCCS [Cysteamine hydrochloride],0.672
4,Cc1c(NC(=O)c2cccnc2)c(=O)n(-c2ccccc2)n1C [nifenazone],-1.85
5,CC(O)CC(C)(C)O (stereo not given) [hexylene glycol],0.287
6,O=C(O)c1ccccc1-c1c2cc(I)c(=O)c(I)c-2oc2c(I)c(O)c(I)cc12 [erythrosine sodium],-0.898
7,CC1=C(CC(=O)O)c2cc(F)ccc2/C1=C\c1ccc(S(C)=O)cc1 (stereo not given) [Sulindac],-1.3
8,C#CCN[C@@H]1CCc2ccccc21 [rasagiline],0.119
9,CCOC(=O)c1ccc(O)cc1 [ethyl paraben],0.794
10,CCN(CC)CCNC(=O)c1ccc(NC(C)=O)cc1 [N-Acetylprocainamide hydrochloride],0.767
11,Clc1ccc(Cn2c(CN3CCCC3)nc3ccccc32)cc1 [clemizole hydrochloride],-0.464
12,Cc1c(N(C)C)c(=O)n(-c2ccccc2)n1C [aminopyrine],0.236
13,C#C[C@]1(O)CCC2C3CCC4=CC(=O)CC[C@@H]4C3CC[C@@]21CC (stereo not given in full) [norgestrel],0.183
14,O=C(O)CCCCC1SCC2NC(=O)NC21 (stereo not given) [biotin],0.707
15,CC(C)(C)NCC(O)c1ccc(O)c(CO)c1 (stereo not given) [Albuterol hemisulfate],0.994
16,S=C=Nc1ccc(N=C=S)cc1 [bitoscanate],0.351
17,CCCC(CCC)C(=O)O [Valproic acid sodium],0.405
18,Cc1onc(-c2ccccc2)c1C(=O)N[C@@H]1C(=O)N2[C@@H]1SC(C)(C)[C@@H]2C(=O)O [oxacillin sodium],0.35
19,CCN(CCCc1ccccc1)CCCc1ccccc1 [alverine citrate],0.906
20,CCn1cc(C(=O)O)c(=O)c2cc(F)c(N3CCN(C)CC3)cc21 [pefloxacine mesylate],0.397

# Among those listed so far, two have a nitro group on carbon.
row,SMILES,MUC1 transcript change (Z-score)
8,CC(=O)Nc1ccc(S(=O)(=O)Nc2ccc([N+](=O)[O-])cc2)cc1 [sulfanitran],0.874
15,Cn1c([N+](=O)[O-])cnc1COC(N)=O [ronidazole],0.0558

# — the supplement of paper PMC4749390
